Measurements reported in PubChem BioAssay AID686943 (Drosophila RNAi Screening Center, 2013)
Purpose: 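Search across the genome for regulators of signalling from receptor tyrosine kinase to ERK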 (primary screen). Cells: Drosophila S2R+ haemocyte-like cells expressing YFP-tagged ERK (Rolled). Reagent: long dsRNA against Drosophila genes. Conditions: insulin stimulation versus unstimulated cells; dose and duration not given. Measurement: 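Antibody staining for doubly phosphorylated ERK divided by ERK-YFP signal, as plate z-scores, in insulin-treated and untreated cells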. Direction: replicate 1, z-score of dpERK with insulin and replicate 2, z-score of dpERK with insulin: higher = more active ERK per ERK-YFP after insulin; replicate 1, z-score of dpERK under basal conditions: higher = more basal active ERK per ERK-YFP; replicate 1, z-score of ERK-YFP with insulin: higher = more YFP-tagged ERK signal.
The screen tested about 23,000 reagents; shown is an unselected part of those with a known target gene and a result. 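Extra replicates exist only for a retested subset of genes; insulin dose and duration not given; both raised and lowered dpERK matter.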 Reagents against one gene are numbered here. A plus sign joins genes that one reagent is predicted to hit. Not given: the amount of reagent, the time to read-out.

| gene | reagent | replicate 1, z-score of dpERK with insulin | replicate 2, z-score of dpERK with insulin | replicate 1, z-score of dpERK under basal conditions | replicate 1, z-score of ERK-YFP with insulin |
| --- | --- | --- | --- | --- | --- |
| CG10680 | 1 | 0.05 | -0.64 | -1.72 | 0.07 |
| CG7220 | 1 | -0.12 | 0.64 | 0.46 | 0.25 |
| CG7220 | 2 | -0.19 | -0.54 | -0.35 | 0.41 |
| hoip (hoi-polloi) | 1 | 0.13 | -2.1 | -1.59 | -6.12 |
| CheA86a (Chemosensory protein A 86a) | 1 | 0.01 | -0.88 | 0.63 | 0.18 |
| Smyd5 (SET and MYND domain containing, class 5) | 1 | -0.42 | 0.91 | -0.37 | -1.34 |
| CG31109 | 1 | 0.36 | 0.16 | 0.06 | 0.48 |
| CG32437 | 1 | 0.01 | -0.23 | -0.63 | 0.04 |
| CG32437 | 2 | 0.04 | 0.58 | 0.61 | -0.27 |
| CG5787 | 1 | 1.64 | 0.65 | -0.04 | 0.29 |
| Rab8 | 1 | 0.27 | 0.68 | 0.17 | 0.07 |
| CG3078 | 1 | -1.85 | 0.16 | 0.42 | -1.17 |
| Wsck | 1 | -0.79 | 0.02 | 1.61 | 0.36 |
| Sfp38D (Seminal fluid protein 38D) | 1 | 0.03 | -0.12 | -1.1 | 0.32 |
| CG9586 | 1 | 0.46 | 0.18 | 1.2 | -0.46 |
| mRpL3 (mitochondrial ribosomal protein L3) | 1 | -0.15 | -0.25 | 0.16 | 0.82 |
| CG11816 | 1 | -0.39 | -0.27 | -2.11 | 0.53 |
| CG10222 | 1 | 0.73 | 0.01 | -1.54 | -0.01 |
| AOX1 (Aldehyde oxidase 1) | 1 | -0.1 | -0.47 | 0.15 | -0.16 |
| RpS6 (Ribosomal protein S6) | 1 | -2.63 | 0.52 | -0.67 | -2.49 |
| Hs3st-A (Heparan sulfate 3-O sulfotransferase-A) | 1 | -2.32 | -2.69 | -3.35 | -1.61 |
| Hs3st-A (Heparan sulfate 3-O sulfotransferase-A) | 2 | 0.93 | 0.68 | 0.35 | -0.35 |
| Hs3st-A (Heparan sulfate 3-O sulfotransferase-A) | 3 | -1.26 | -0.22 | 1.16 | 0.11 |
| Tango9 (Transport and Golgi organization 9) | 1 | -0.15 | -0.27 | 0.01 | 0.15 |
| CG17977 | 1 | 0.69 | 0.5 | 0.83 | 0.17 |
| Cyp12e1 (Cytochrome P450 12e1) | 1 | 0.53 | 0.76 | -0.58 | 0.34 |
| Cyp6t3 (Cytochrome P450 6t3) | 1 | -0.96 | 0.17 | -1.22 | -0.4 |
| PTPMT1 (Protein tyrosine phosphatase, mitochondrial 1) | 1 | 1.51 | 0.4 | 0.28 | -0.19 |
| p38a (p38a MAP kinase) | 1 | 0.35 | 0.01 | 0.22 | 0.35 |
| RpLP1 (Ribosomal protein LP1) | 1 | -3.3 | -3.35 | -4.57 | -2.57 |
| RpLP1 (Ribosomal protein LP1) | 2 | 1.85 | -2.13 | 3.2 | -2.48 |
| CG15676 | 1 | -0.48 | -0.02 | 0.49 | 0.29 |
| PPO3 (Prophenoloxidase 3) | 1 | 0.01 | -0.76 | -0.58 | 0.23 |
| Naa15-16 (N(alpha)-acetyltransferase 15/16) | 1 | 3.07 | 2.15 | 1.01 | -1.65 |
| Naa15-16 (N(alpha)-acetyltransferase 15/16) | 2 | -0.28 | -0.28 | -0.65 | 0.5 |
| EMC2B (ER membrane protein complex subunit 2B) | 1 | -1.03 | 0.5 | 1.92 | 0.45 |
| CG43759 | 1 | 0.16 | -0.02 | -1.29 | -0.1 |
| CG43759 | 2 | -0.93 | 0.23 | -0.88 | 1.75 |
| CG12895 | 1 | 0.03 | 0.58 | 0.02 | 0.35 |
| Rif1 (Rap1 interacting factor 1) | 1 | -0.37 | -1.1 | 1.47 | 0.56 |
| Papss (PAPS synthetase) | 1 | 0.06 | 0.03 | -0.89 | 0.21 |
| HDAC11 (Histone deacetylase 11) | 1 | -0.01 | 1.18 | 0.58 | 0.28 |
| CG12519 | 1 | 0.11 | 0.77 | -0.54 | 0.44 |
| CG12519 | 2 | 0.51 | 0.27 | 0.31 | 0.09 |
| CG8219 | 1 | 0.37 | -0.21 | – | -0.18 |
| CG14937 | 1 | -0.11 | 0.65 | -0.57 | 0.39 |
| CG7148 | 1 | 0.14 | 0 | -0.29 | 0.41 |
| MsR2 (Myosuppressin receptor 2) | 1 | 0.83 | 1.11 | 0.92 | 0.11 |
| MsR2 (Myosuppressin receptor 2) | 2 | 1.19 | 0.37 | 0.54 | -0.5 |
| MsR2 (Myosuppressin receptor 2) | 3 | 0.08 | 0.64 | 1.17 | -1.6 |
| z (zeste) | 1 | -1.06 | -2.45 | 1.15 | -0.06 |
| Alms1b + Alms1a | 1 | 0.03 | 0.18 | -0.1 | -0.53 |
| Or94a (Odorant receptor 94a) | 1 | 0.12 | -0.08 | 0.04 | 0.17 |
| CG43610 | 1 | -1.02 | -1.11 | -0.32 | -0.48 |
| Ubr1 (Ubr1 ubiquitin ligase) | 1 | -1.83 | -2.4 | -1.66 | 3.2 |
| mTor (mechanistic Target of rapamycin) | 1 | 2.75 | 1.69 | -2.45 | -0.73 |
| Kcmf1 (Potassium channel modulatory factor 1) | 1 | -1 | -0.93 | -1.34 | 0.97 |
